Data on 16 targets can be found in the supplement of paper PMC6411743.

Amino acid sequences for entries named in this document (tags omitted). A change or cut given only in a name is not applied to a line headed by its entry.
UniProt Q9UDY4: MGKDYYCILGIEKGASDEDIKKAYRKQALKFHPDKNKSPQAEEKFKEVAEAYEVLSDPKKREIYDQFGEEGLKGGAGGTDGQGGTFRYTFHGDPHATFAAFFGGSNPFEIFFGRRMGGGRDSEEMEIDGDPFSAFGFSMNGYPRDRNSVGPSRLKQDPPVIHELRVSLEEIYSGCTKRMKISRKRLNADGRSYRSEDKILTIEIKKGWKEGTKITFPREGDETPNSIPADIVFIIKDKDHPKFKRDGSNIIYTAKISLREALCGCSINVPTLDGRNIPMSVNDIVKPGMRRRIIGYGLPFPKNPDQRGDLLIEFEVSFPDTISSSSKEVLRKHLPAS
UniProt Q9P2R7: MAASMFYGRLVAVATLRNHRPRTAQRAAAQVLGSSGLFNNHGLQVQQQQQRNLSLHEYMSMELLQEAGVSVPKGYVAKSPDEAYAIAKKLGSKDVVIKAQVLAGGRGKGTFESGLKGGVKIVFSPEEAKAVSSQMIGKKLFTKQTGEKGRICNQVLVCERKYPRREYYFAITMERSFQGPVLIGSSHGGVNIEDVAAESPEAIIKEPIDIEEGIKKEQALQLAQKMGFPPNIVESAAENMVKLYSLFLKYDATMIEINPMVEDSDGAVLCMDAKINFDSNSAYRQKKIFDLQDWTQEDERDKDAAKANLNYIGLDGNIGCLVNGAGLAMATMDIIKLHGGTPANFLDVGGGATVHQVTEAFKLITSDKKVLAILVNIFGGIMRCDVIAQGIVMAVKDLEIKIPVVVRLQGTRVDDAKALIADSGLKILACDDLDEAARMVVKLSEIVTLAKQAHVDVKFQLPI
UniProt Q9ULR0: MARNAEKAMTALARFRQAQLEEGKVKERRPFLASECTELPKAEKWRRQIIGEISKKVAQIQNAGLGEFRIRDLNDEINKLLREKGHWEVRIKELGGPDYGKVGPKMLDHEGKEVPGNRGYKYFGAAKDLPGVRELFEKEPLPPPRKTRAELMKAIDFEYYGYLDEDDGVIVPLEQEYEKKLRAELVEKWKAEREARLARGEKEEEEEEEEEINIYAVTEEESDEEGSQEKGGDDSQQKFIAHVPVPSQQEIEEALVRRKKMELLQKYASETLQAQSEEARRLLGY
UniProt Q9UBU9: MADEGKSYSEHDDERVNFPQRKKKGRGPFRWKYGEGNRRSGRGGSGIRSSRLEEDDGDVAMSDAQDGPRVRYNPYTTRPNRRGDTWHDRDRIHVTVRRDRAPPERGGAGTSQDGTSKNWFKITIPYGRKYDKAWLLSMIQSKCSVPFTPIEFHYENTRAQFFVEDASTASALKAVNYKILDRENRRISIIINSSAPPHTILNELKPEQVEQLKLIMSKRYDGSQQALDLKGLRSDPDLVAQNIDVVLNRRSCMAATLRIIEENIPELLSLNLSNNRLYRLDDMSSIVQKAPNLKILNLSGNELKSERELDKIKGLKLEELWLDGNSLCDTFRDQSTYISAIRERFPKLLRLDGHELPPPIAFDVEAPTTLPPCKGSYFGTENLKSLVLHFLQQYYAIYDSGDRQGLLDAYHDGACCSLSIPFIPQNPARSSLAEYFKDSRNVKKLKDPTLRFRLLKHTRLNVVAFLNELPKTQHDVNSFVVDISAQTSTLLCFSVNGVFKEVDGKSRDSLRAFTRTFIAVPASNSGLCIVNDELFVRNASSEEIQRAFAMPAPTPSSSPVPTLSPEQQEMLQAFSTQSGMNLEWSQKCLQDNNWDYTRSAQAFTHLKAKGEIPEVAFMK
UniProt Q9UBS4: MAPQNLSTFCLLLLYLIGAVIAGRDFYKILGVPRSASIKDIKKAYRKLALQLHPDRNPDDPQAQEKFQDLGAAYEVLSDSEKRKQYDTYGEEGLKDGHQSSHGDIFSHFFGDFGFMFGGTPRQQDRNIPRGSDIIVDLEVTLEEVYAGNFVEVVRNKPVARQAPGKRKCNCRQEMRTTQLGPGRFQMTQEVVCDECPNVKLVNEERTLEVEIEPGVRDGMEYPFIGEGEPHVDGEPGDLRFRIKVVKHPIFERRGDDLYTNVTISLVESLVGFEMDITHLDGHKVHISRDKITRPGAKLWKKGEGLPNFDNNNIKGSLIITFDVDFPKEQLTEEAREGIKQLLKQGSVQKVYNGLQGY
UniProt Q9UQC2, whole entry: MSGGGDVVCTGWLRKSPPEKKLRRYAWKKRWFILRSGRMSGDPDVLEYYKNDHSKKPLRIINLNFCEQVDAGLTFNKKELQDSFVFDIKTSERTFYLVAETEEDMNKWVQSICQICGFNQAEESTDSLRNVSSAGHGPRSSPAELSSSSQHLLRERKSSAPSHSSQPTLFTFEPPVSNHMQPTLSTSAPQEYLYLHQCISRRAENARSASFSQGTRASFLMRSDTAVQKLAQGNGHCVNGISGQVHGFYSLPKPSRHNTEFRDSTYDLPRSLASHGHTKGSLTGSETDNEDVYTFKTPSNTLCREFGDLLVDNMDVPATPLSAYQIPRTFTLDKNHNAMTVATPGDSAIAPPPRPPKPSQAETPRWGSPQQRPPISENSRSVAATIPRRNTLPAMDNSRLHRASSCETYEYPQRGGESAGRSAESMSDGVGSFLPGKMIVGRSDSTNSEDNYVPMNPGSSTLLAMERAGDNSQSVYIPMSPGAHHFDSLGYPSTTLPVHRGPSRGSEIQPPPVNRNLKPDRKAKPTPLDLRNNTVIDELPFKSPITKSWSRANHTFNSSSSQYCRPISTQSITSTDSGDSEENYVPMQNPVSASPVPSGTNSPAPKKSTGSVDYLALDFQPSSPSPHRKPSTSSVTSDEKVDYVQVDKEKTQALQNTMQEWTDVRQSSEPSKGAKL
UniProt Q9Y248: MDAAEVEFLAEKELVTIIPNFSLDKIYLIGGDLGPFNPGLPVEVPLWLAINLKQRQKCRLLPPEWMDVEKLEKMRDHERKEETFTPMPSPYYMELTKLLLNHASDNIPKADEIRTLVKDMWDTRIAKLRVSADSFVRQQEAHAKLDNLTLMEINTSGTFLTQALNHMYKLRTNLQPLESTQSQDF
UniProt Q9UGP4: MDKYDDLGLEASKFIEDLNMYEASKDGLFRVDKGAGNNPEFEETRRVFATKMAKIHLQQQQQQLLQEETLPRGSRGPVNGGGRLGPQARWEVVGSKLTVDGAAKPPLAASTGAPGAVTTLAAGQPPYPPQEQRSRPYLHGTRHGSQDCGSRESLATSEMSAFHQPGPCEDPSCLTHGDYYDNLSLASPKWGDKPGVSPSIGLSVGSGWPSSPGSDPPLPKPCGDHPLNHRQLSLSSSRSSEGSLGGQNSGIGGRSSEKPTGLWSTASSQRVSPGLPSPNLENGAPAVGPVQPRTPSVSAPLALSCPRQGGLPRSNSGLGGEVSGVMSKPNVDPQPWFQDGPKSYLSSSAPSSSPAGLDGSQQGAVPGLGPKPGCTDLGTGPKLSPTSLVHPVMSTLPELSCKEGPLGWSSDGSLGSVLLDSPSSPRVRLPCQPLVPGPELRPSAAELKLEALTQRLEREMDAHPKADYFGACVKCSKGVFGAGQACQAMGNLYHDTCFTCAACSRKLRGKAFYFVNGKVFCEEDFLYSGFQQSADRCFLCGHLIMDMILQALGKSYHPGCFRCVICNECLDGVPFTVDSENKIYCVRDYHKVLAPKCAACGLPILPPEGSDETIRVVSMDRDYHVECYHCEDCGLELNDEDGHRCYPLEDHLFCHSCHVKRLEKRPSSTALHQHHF
UniProt Q9UEU0: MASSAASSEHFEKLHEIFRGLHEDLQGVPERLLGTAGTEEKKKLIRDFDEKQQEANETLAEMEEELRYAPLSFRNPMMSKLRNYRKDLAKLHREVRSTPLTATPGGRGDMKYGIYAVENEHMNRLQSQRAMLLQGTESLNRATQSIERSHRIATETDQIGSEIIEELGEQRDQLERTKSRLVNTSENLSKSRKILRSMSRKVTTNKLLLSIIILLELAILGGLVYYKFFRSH
UniProt Q9UMY1: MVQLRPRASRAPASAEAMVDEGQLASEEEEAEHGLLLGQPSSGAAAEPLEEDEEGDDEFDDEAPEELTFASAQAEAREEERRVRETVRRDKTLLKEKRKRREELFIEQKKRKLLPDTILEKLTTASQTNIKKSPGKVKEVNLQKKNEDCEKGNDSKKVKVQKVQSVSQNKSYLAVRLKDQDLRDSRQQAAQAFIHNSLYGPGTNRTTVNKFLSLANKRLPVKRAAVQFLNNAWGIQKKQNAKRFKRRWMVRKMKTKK
UniProt Q9UDW3: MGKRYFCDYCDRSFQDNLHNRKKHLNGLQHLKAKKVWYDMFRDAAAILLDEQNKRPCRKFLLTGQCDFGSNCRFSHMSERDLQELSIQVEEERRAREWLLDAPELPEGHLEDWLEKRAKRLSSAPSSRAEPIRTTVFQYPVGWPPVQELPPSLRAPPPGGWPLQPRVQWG
UniProt Q9Y281, whole entry: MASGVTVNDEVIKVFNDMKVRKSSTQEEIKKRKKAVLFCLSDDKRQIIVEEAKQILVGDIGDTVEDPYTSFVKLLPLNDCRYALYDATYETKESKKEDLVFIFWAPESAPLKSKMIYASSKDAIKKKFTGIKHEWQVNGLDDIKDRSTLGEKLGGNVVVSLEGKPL
UniProt Q9ULW3: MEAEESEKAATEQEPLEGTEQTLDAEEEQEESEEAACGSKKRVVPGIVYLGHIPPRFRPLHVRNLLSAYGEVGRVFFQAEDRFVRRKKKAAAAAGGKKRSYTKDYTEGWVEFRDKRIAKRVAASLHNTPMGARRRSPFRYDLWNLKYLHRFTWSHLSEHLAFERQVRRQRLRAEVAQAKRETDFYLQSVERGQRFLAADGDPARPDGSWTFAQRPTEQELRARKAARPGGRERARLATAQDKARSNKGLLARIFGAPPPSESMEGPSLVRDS
UniProt Q9UN36: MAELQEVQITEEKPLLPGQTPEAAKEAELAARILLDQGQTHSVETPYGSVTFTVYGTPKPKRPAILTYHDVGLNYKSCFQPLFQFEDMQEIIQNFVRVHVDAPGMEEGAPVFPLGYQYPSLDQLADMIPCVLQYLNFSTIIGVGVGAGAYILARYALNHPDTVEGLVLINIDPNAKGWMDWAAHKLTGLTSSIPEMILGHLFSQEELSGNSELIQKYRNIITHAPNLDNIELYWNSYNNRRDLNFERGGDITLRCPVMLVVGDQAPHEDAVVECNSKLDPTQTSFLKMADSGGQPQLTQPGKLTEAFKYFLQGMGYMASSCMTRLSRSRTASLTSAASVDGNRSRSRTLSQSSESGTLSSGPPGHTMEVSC

± gives the standard deviation of the averaged measurements. The entries are a selection whose mix differs from that of the whole data set.

Compound in the assay: Nc1ncnc2c1ncn2[C@@H]1O[C@H](COP(=O)(O)OP(=O)(O)OP(=O)(O)O)[C@@H](O)[C@H]1O [adenosine triphosphate]
Put plainly: NP40-soluble protein abundance relative to vehicle (solubility fold change) (ratio); higher = more soluble protein in presence of ATP. Put shortly: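 Jurkat crude lysate (Dounce-homogenised) was treated with eight concentrations from 0.1 to 10 mM for 10 min at room temperature, then 3 min at 37 °C. It was solubilised with 0.8% NP40 and benzonase (60 min, 4 °C) and ultracentrifuged, and the supernatant was TMT-labelled for LC-MS/MS. Intensities were vsn-normalised, and the value is the fold change against the NP40-processed vehicle per replicate, from three independent experiments.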

DNAJB4 (UniProt Q9UDY4): the NP40-soluble protein abundance was found to be 0.878 ± 0.036 (concentration: 1mM); 0.851 ± 0.042 (concentration: 2mM); 0.847 ± 0.044 (concentration: 4mM); 0.824 ± 0.016 (concentration: 6mM); 0.824 ± 0.023 (concentration: 8mM); 0.86 ± 0.037 (concentration: 10mM).
As for UniProt Q9P2R7 and related entries, the NP40-soluble protein abundance (concentration: 1mM) was determined as 0.972 ± 0.03; the NP40-soluble protein abundance (concentration: 2mM) amounted to 0.954 ± 0.034; the NP40-soluble protein abundance (concentration: 4mM) was 0.927 ± 0.036; the NP40-soluble protein abundance (concentration: 6mM) amounted to 0.952 ± 0.043; the NP40-soluble protein abundance (concentration: 8mM) came out at 0.961 ± 0.059; the NP40-soluble protein abundance (concentration: 10mM) turned out to be 0.924 ± 0.036.
UniProt Q9ULR0 and related entries: the NP40-soluble protein abundance by setting is: (concentration: 1mM) 0.955 ± 0.066; (concentration: 2mM) 0.958 ± 0.062; (concentration: 4mM) 0.93 ± 0.071; (concentration: 6mM) 0.961 ± 0.087; (concentration: 8mM) 0.945 ± 0.066; (concentration: 10mM) 0.952 ± 0.068.
Regarding NXF1 (UniProt Q9UBU9), the NP40-soluble protein abundance amounted to 1.1 ± 0.039 (concentration: 1mM); 1.109 ± 0.007 (concentration: 2mM); 1.22 ± 0.059 (concentration: 4mM); 1.26 ± 0.05 (concentration: 6mM); 1.42 ± 0.092 (concentration: 8mM); 1.54 ± 0.079 (concentration: 10mM).
Consider DNAJB11 (UniProt Q9UBS4), for which the NP40-soluble protein abundance is, setting by setting: (concentration: 1mM) 1.05 ± 0.035; (concentration: 2mM) 1.01 ± 0.042; (concentration: 4mM) 0.987 ± 0.02; (concentration: 6mM) 1.03 ± 0.11; (concentration: 8mM) 1.03 ± 0.023; (concentration: 10mM) 0.952 ± 0.03.
As for UniProt Q9UQC2 and related entries, the NP40-soluble protein abundance came out at 0.932 ± 0.014 (concentration: 1mM); 0.92 ± 0.064 (concentration: 2mM); 0.979 ± 0.061 (concentration: 4mM); 0.974 ± 0.082 (concentration: 6mM); 0.877 ± 0.04 (concentration: 8mM); 0.891 ± 0.029 (concentration: 10mM).
Regarding GINS2 (UniProt Q9Y248), the NP40-soluble protein abundance reads like this: (concentration: 1mM) 0.98 ± 0.069; (concentration: 2mM) 0.979 ± 0.035; (concentration: 4mM) 0.964 ± 0.041; (concentration: 6mM) 0.965 ± 0.037; (concentration: 8mM) 1.01 ± 0.018; (concentration: 10mM) 0.942 ± 0.09.
Consider UniProt Q9UL18 and related entries, for which the NP40-soluble protein abundance runs as follows: (concentration: 1mM) 1.01 ± 0.14; (concentration: 2mM) 1.07 ± 0.095; (concentration: 4mM) 1.08 ± 0.11; (concentration: 6mM) 1.08 ± 0.063; (concentration: 8mM) 1.07 ± 0.093; (concentration: 10mM) 1.05 ± 0.061.
UniProt Q9UGP4 and related entries: the NP40-soluble protein abundance by setting is: (concentration: 1mM) 0.9406 ± 0.0089; (concentration: 2mM) 0.955 ± 0.011; (concentration: 4mM) 0.954 ± 0.037; (concentration: 6mM) 0.95 ± 0.027; (concentration: 8mM) 0.94 ± 0.05; (concentration: 10mM) 0.957 ± 0.025.
Consider MRTO4 (UniProt Q9UKD2), for which the NP40-soluble protein abundance was found to be 1.05 ± 0.048 (concentration: 1mM); 1.09 ± 0.023 (concentration: 2mM); 1.06 ± 0.012 (concentration: 4mM); 1.02 ± 0.12 (concentration: 6mM); 0.962 ± 0.036 (concentration: 8mM); 1.04 ± 0.043 (concentration: 10mM).
On to VTI1B (UniProt Q9UEU0), for which the NP40-soluble protein abundance runs as follows: (concentration: 1mM) 1.07 ± 0.052; (concentration: 2mM) 1.02 ± 0.021; (concentration: 4mM) 1.04 ± 0.034; (concentration: 6mM) 1.08 ± 0.064; (concentration: 8mM) 1.05 ± 0.021; (concentration: 10mM) 0.988 ± 0.082.
Take NOL7 (UniProt Q9UMY1): the NP40-soluble protein abundance stood at 0.987 ± 0.085 (concentration: 1mM); 0.952 ± 0.054 (concentration: 2mM); 0.974 ± 0.061 (concentration: 4mM); 1.03 ± 0.032 (concentration: 6mM); 0.966 ± 0.043 (concentration: 8mM); 0.976 ± 0.069 (concentration: 10mM).
ZMAT5 (UniProt Q9UDW3): the NP40-soluble protein abundance by setting is: (concentration: 1mM) 1.17 ± 0.27; (concentration: 2mM) 1.22 ± 0.21; (concentration: 4mM) 1.32 ± 0.3; (concentration: 6mM) 1.39 ± 0.38; (concentration: 8mM) 1.52 ± 0.31; (concentration: 10mM) 1.49 ± 0.32.
As for CFL2 (UniProt Q9Y281), the NP40-soluble protein abundance (concentration: 1mM) worked out at 0.872 ± 0.025; the NP40-soluble protein abundance (concentration: 2mM) amounted to 0.887 ± 0.07; the NP40-soluble protein abundance (concentration: 4mM) is 0.898 ± 0.031; the NP40-soluble protein abundance (concentration: 6mM) stood at 0.769 ± 0.13; the NP40-soluble protein abundance (concentration: 8mM) was determined as 0.835 ± 0.075; the NP40-soluble protein abundance (concentration: 10mM) came to 0.844 ± 0.081.
Consider ABT1 (UniProt Q9ULW3), for which the NP40-soluble protein abundance is 0.997 ± 0.043 (concentration: 1mM); 1.01 ± 0.095 (concentration: 2mM); 1.02 ± 0.057 (concentration: 4mM); 0.989 ± 0.055 (concentration: 6mM); 0.982 ± 0.061 (concentration: 8mM); 0.979 ± 0.07 (concentration: 10mM).
UniProt Q9UN36 and related entries: the NP40-soluble protein abundance was determined as 0.99 ± 0.026 (concentration: 1mM); 1.02 ± 0.048 (concentration: 2mM); 1.01 ± 0.04 (concentration: 4mM); 0.997 ± 0.036 (concentration: 6mM); 0.968 ± 0.058 (concentration: 8mM); 0.948 ± 0.029 (concentration: 10mM).
